Laboratory results reported in patent US7544661 (NORTHWESTERN UNIVERSITY, dated 2009).
No constants are given. Whether binding was seen depends on the method and setting. Binding calls can cover weak binding; strength is not graded here.

Legend:
[1] = biological target: laminin-5; test: phage display; listed as binding sequence for laminin-5
[2] = biological target: laminin-5; test: phage display; listed as binding sequence for laminin-5; * denotes the strongest binders

Binder	binding [1]	binding [2]
SKLNTKS	binds	
LRHKSLH	binds	
RYHPHLH		binds
GRYHHYLH	binds	
